Data source: PubChem BioAssay AID504774 (Drosophila RNAi Screening Center, 2011)
The deposit covers about 23,000 reagents; this is an unselected part of those with a known target gene and a result. 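Values are quantile-normalised luminescence on an arbitrary scale; higher means more cells surviving MMS.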 Not all columns of the deposit are shown. No sequences are given here.

Purpose: 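Knock-downs that shift viability of MMS-exposed cells relative to untreated ones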 (primary screen)
Cells: Drosophila Kc167 cells
Knock-down reagent: long dsRNA against Drosophila genes, about 0.25 µg dsRNA per well
Duration: about 6 days: 3 days knock-down, then 3 days with or without MMS
Conditions: methyl methanesulphonate 0.004% (w/v) for 3 days after knock-down
Measurement: 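ATP-dependent luminescence as a measure of live cells in MMS-exposed wells, quantile normalised within each plate, with replicate values also given as a mean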
Reading the numbers: mean viability with MMS: higher = more surviving cells after MMS

What is on record for CG30183 [DRSC04450]?
mean viability with MMS: 3.51e6

How did the screen score CG30183 [DRSC04472]?
mean viability with MMS: 3.47e6

What did the screen give for Lam [DRSC03359]?
mean viability with MMS: 3.15e6

With Osi7 [DRSC12176], how do the results read?
mean viability with MMS: 3.45e6

How did the screen score Idi [DRSC15918]?
mean viability with MMS: 3.70e6

With Cpr76Ba [DRSC11060], what was measured?
mean viability with MMS: 3.45e6

What did the screen give for Invadolysin [DRSC15527]?
mean viability with MMS: 3.56e6

For dlp [DRSC10281], how do the results read?
mean viability with MMS: 3.30e6

Which result is listed for dlp [DRSC10472]?
mean viability with MMS: 3.36e6

With alpha-Man-IIa [DRSC15393], what does the deposit list?
mean viability with MMS: 3.60e6

How did the screen score l(2)27Cb (retired record) [DRSC02758]?
mean viability with MMS: 3.41e6

With CG13039 [DRSC09920], what does the deposit list?
mean viability with MMS: 3.42e6

What did the screen give for Arp5 [DRSC16350]?
mean viability with MMS: 3.79e6

With GstE10 [DRSC06671], what does the deposit list?
mean viability with MMS: 3.59e6

Reprinted from the entries so far for reference:
CG30183 [DRSC04472] — mean viability with MMS = 3.47e6
Lam [DRSC03359] — mean viability with MMS = 3.15e6
